Tested on: corresponding antibody coated on capillary inner surface
Experiment: Detection of individual drugs in artificial sweat, inhibition curves (capillary competitive chemiluminescent ELISA)
Format: binding
Details: y = a + b/(1+(x/x0)^p), x in ng/mL; used as calibration curve

Q: `CCC(=O)C(CC(C)N(C)C)(c1ccccc1)c1ccccc1` (stereo not shown) [Methadone, methadone] was tested. Which “midpoint parameter of logistic fit of inhibition curve B/B0 (%)” value did it give?
A: 0.09 ng/mL
